Assay results taken from PMC12313710, “Targeting the BAG2/CHIP axis promotes gastric cancer apoptosis by blocking apoptosome assembly” (Frontiers in Immunology, 2025).
These are yes or no findings as the source states them, for the method shown. Binding seen in cells or lysates may run through a third protein. Some entries that bind do so weakly or less than the wild type. For some assays here: Sequences can lack the tags named with a protein. One block for each binder: values may come before it.

Key:
Details in all cases: remark: other sources report otherwise
[1] = target: T1, c-terminus of HSP70-interacting protein (CHIP), Flag- or HA-tagged, Q9UNE7; experiment: co-IP; Flag- and HA-tagged proteins co-expressed in HEK-293T; lysis in 50 mM Tris-HCl pH 7.4, 150 mM NaCl, 1 mM EDTA, 0.2% Triton X-100; anti-Flag M2 agarose, 2 h, 4°C; blots for HA and FLAG
T1 chain: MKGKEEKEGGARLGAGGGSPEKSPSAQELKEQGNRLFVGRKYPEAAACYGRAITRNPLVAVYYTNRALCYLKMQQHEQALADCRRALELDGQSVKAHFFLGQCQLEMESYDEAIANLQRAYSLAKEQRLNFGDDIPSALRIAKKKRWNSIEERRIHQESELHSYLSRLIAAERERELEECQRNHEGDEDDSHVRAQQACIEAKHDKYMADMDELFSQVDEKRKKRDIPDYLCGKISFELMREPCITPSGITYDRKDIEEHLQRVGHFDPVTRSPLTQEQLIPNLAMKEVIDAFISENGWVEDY

[2] = target: T1, c-terminus of HSP70-interacting protein …; experiment: co-IP; BAG2 and CHIP, wild type, deletion mutants and CHIP 91–96 / 131–135 mutants (Figure 5A, B, E); cell line not stated
HA-tagged CHIP, Q9UNE7 = target: T2, HA-tagged CHIP, Q9UNE7; experiment: co-IP; HA-tagged CHIP and FLAG-tagged HSP70 in HEK-293 cells transfected with No-tagged BAG2 (concentration-dependent)
T2 chain: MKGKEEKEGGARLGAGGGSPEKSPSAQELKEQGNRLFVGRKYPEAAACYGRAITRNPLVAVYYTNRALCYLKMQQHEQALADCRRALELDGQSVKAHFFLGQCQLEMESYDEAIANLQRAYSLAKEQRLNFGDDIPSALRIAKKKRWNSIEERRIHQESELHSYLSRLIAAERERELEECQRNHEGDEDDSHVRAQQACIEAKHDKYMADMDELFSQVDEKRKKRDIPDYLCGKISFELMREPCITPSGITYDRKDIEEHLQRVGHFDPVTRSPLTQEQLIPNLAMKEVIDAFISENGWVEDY

[3] = target: T3, CHIP in HGC-27 cells, Q9UNE7; experiment: co-IP; BAG2-CHIP in HGC-27 cells treated with FIIN-2 at the indicated concentrations
T3 chain: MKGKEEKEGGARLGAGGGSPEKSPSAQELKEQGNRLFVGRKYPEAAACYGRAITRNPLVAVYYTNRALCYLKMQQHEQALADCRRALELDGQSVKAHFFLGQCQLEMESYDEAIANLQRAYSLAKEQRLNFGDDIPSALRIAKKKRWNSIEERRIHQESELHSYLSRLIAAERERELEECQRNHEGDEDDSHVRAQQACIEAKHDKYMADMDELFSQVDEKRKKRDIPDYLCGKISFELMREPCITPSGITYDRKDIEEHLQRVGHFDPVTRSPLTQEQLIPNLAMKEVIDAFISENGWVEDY

[4] = target: T4, CHIP (immunoprecipitation of Supplementary Figure 3), Q9UNE7; experiment: co-IP; immunoprecipitation of Supplementary Figure 3; cells and constructs not told
T4 chain: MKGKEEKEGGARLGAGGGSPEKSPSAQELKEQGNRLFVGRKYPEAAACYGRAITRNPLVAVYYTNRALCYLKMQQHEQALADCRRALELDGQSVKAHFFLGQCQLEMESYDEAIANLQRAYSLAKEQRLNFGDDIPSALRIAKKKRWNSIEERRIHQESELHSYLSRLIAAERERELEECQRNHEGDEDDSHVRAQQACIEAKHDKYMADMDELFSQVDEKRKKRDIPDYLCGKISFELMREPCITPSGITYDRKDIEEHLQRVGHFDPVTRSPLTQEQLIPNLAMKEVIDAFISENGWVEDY

binding [1]: binds
binding [2]: binds
B1: BCL2-associated athanogene 2 (BAG2), Flag- or HA-tagged, O95816 1-211 (protein)
chain: MAQAKINAKANEGRFCRSSSMADRSSRLLESLDQLELRVEALREAATAVEQEKEILLEMIHSIQNSQDMRQISDGEREELNLTANRLMGRTLTVEVSVETIRNPQQQESLKHATRIIDEVVNKFLDDLGNAKSHLMSLYSACSSEVPHGPVDQKFQSIVIGCALEDQKKIKRRLETLLRNIENSDKAIKLLEHSKGAGSKTLQQNAESRFN

binding (HA-tagged CHIP, Q9UNE7): binds
B2: No-tagged BAG2, O95816 1-211 (protein)
chain: MAQAKINAKANEGRFCRSSSMADRSSRLLESLDQLELRVEALREAATAVEQEKEILLEMIHSIQNSQDMRQISDGEREELNLTANRLMGRTLTVEVSVETIRNPQQQESLKHATRIIDEVVNKFLDDLGNAKSHLMSLYSACSSEVPHGPVDQKFQSIVIGCALEDQKKIKRRLETLLRNIENSDKAIKLLEHSKGAGSKTLQQNAESRFN

binding [3]: binds
B3: BAG2 in HGC-27 cells, O95816 1-211 (protein)
chain: MAQAKINAKANEGRFCRSSSMADRSSRLLESLDQLELRVEALREAATAVEQEKEILLEMIHSIQNSQDMRQISDGEREELNLTANRLMGRTLTVEVSVETIRNPQQQESLKHATRIIDEVVNKFLDDLGNAKSHLMSLYSACSSEVPHGPVDQKFQSIVIGCALEDQKKIKRRLETLLRNIENSDKAIKLLEHSKGAGSKTLQQNAESRFN

binding [4]: binds
B4: BAG2 (immunoprecipitation of Supplementary Figure 3), O95816 1-211 (protein)
chain: MAQAKINAKANEGRFCRSSSMADRSSRLLESLDQLELRVEALREAATAVEQEKEILLEMIHSIQNSQDMRQISDGEREELNLTANRLMGRTLTVEVSVETIRNPQQQESLKHATRIIDEVVNKFLDDLGNAKSHLMSLYSACSSEVPHGPVDQKFQSIVIGCALEDQKKIKRRLETLLRNIENSDKAIKLLEHSKGAGSKTLQQNAESRFN
